Our source for the binding values is article PMC7282624.

Sequences of proteins named here, by UniProt entry; tags and fusion partners are left off.
UniProt P14635: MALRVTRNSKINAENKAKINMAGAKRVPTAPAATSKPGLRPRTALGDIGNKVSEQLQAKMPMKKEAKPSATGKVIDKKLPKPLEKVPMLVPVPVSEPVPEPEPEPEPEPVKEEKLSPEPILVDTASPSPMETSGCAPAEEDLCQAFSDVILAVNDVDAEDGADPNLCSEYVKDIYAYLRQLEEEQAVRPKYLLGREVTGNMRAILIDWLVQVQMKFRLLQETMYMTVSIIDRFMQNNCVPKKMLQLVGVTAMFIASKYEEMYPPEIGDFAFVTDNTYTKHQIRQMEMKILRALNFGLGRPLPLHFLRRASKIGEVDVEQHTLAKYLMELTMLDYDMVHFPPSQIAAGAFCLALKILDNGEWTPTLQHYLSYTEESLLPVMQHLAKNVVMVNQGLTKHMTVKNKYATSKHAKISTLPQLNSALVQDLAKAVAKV

For the test, the target named is T1, FLAG-tagged ATG13 (ATG13-3FLAG) (human) (UniProt O75143).
T1 sequence: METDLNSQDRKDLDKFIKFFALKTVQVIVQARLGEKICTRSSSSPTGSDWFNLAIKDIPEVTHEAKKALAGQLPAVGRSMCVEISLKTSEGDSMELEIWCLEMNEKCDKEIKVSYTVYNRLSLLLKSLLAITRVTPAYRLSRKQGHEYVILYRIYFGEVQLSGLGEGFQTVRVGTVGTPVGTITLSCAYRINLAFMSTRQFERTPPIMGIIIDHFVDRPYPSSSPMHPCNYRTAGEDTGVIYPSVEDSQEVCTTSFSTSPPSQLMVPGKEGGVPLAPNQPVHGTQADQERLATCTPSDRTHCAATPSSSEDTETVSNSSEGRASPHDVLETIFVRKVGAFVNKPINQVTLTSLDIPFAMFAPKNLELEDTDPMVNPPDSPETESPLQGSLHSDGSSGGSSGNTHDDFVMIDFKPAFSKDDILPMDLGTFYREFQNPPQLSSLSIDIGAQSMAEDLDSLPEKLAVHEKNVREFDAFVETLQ
In words: co-IP; anti-FLAG antibody on Protein G Dynabeads, 4 °C 12 hours, M-PER lysates of HEK-293T cells stably expressing the FLAG-tagged bait; cells asynchronous or synchronized by single-thymidine with or without nocodazole (some treated with RO-3306); western blot. (In general: A western blot detects proteins with antibodies after separation by electrophoresis.)

These are yes or no findings as the source states them, for the method shown. Binding seen in cells or lysates may run through a third protein. Some results given as binding are weak or reduced against the parent protein; the word gives no strength. Sequences can lack the tags named with a protein.

As for “cyclin B1, endogenous (from UniProt P14635 1-433)”, the binding result is “binds”.
